Results reported in PMC3120713.
These are yes or no findings as the source states them, for the method shown. Binding seen in cells or lysates may run through a third protein. Binding can be weak; no strength is given.

Target: T1, DJ-1 (endogenous, mouse brain) (mouse (endogenous in mouse brain)) (UniProt Q99LX0)
T1 sequence: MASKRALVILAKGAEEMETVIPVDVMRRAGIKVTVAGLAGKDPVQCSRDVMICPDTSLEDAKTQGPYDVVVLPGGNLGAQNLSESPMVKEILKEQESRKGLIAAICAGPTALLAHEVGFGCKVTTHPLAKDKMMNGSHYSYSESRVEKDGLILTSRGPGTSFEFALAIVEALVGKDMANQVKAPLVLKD
Test: co-IP; wild type or DJ-1 KO mouse brain lysates immunoprecipitated with DJ-1 antibody; endogenous MAP1b-LC detected by blot

MAP1b-LC (endogenous, mouse brain)
binding: binds
